Whole data set: some 33,000 sequences, median “E-score (-0.5 to 0.5)” near -0.015, cut for the highest 2% near 0.3. The list shows a part of the results.
These sequences were tested against T1, Abf1 (UniProt P14164) (assay: PBM E-score (8-mer binding enrichment) (E-score (-0.5 to 0.5)); higher = stronger / more preferred TF binding). Settings: protein concentration: 200 nM; construct: GST-full length.
T1 sequence: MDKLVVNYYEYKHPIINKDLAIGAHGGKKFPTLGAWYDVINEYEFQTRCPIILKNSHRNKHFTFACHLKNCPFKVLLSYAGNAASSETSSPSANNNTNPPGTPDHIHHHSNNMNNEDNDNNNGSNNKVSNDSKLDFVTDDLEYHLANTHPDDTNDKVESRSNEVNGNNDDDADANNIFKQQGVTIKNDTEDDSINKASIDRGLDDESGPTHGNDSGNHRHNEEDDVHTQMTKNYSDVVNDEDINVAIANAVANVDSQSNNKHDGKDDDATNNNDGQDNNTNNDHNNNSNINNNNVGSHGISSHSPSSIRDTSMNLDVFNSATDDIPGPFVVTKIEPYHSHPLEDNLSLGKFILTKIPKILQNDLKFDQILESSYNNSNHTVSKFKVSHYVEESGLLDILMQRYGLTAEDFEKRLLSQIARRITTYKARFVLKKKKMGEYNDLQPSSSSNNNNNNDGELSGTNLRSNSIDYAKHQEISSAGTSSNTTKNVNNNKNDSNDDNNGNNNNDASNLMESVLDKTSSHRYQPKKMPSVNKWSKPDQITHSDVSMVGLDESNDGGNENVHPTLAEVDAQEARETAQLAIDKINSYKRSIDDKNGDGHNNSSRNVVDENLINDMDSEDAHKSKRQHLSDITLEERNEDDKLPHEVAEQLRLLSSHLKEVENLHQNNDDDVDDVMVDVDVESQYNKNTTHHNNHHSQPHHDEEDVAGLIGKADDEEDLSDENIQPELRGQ
How it was run: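 Masliner-normalised scans of fluorescent anti-GST signal were the basis for scoring. That signal came from GST-tagged yeast transcription factors applied at about 100-200 nM to double-stranded universal all-10-mer Agilent arrays on fresh or once-stripped slides. Each ungapped eight-base word, pooled with its reverse complement, received an E-score from the Universal PBM Analysis Suite.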

Row | Sequence | PBM E-score
1 | AGTGGCTG | -0.142
2 | AGGCCTGA | -0.101
3 | CACACTTA | -0.007
4 | GCAACGTA | 0.123
5 | GAGGAGTA | -0.0454
6 | AGCACTAT | 0.0825
7 | CGATCCAA | 0.148
8 | ATCGAATG | -0.0318
9 | CTATGTAA | -0.0567
10 | TATATTGA | 0.0852
11 | ACAACATC | -0.0257
12 | ATCCGATC | -0.092
13 | GCTTATCA | 0.0367
14 | AATAACGC | -0.118
15 | CTAAAAGA | -0.161
16 | CCTAAGTA | 0.169
17 | AACGGCCT | 0.0741
18 | CCGGTGTA | -0.124
19 | AGTTAGAA | 0.0564
20 | GGTGAACC | -0.174
21 | CTCGTGGC | 0.0236
22 | CCCCGATA | -0.157
23 | AGTCTATC | 0.00248
24 | CCCTTAAG | -0.111
25 | CCAACTGG | -0.0293

Row | Sequence | PBM E-score
26 | ATTAACTA | 0.187
27 | ATACCGAC | -0.0227
28 | ACTCGTAC | 0.195
29 | GGCTAACA | 0.00759
30 | GCTGAGTA | -0.21
31 | ATTAATGG | 0.275
32 | ATATACCA | 0.173
33 | GGATCATA | 0.0286
34 | TAGGTGGA | 0.093
35 | CCATATAG | -0.0494
36 | AACTAGTT | -0.0594
37 | GTTCTCCA | -0.0724
38 | CGACCAAA | 0.126
39 | CGTATGGA | 0.232
40 | AAATATAC | 0.0697
41 | GGAGTGCC | -0.252
42 | AGAGAGGG | -0.191
43 | CATGCAGC | -0.143
44 | AGAAGCTC | 0.0115
45 | CATAAGAG | -0.0863
46 | AACGGTGG | -0.0044
47 | ATGCCTCG | 0.0921
48 | ACCGGGCA | -0.222
49 | AAAGCTGC | 0.0689
50 | GTCAATCA | 0.12

Row | Sequence | PBM E-score
51 | AAATGTCT | 0.145
52 | AATGAGCC | -0.35
53 | ATCTTCCC | -0.146
54 | CCAAGATC | 0.0578
55 | AACCGATG | -0.0418
56 | GCCCGACA | -0.0668
57 | ACGATGAC | 0.264
58 | CGCGTCCG | -0.0887
59 | ACTGCACG | -0.0217
60 | CGCTCGTC | 0.175
61 | CGCTCCAA | -0.0928
62 | GATGATTA | 0.263
63 | ACGTTTCC | 0.0711
64 | CGTCCGCA | -0.0473
65 | TCGAGGAA | -0.148
66 | CCCCGAGA | -0.183
67 | GCCTACAA | -0.14
68 | AACACTTG | -0.0627
69 | CGGAGTTA | 0.0161
70 | GTTCTAAA | 0.119
71 | ATCTGCTA | 0.0805
72 | AATGCGCG | 0.13
73 | GTGGTAGA | -0.089
74 | CTCGCGCA | -0.135
75 | ACACGCCT | 0.0759

Row | Sequence | PBM E-score
76 | AATGGCAC | -0.21
77 | GTCCCCAA | 0.0213
78 | GCAGGTAA | -0.0689
79 | ATACCCAA | 0.0687
80 | CAAGGCGG | -0.119
81 | AGAAGCTA | 0.0919
82 | ACGTTGAC | 0.0962
83 | GCTGATAC | 0.0305
84 | CCCCAGGA | -0.301
85 | CCGTCGAC | 0.103
86 | AATGACCG | -0.0142
87 | CCACAGAC | -0.0822
88 | GGACTCAC | -0.0476
89 | ACCGGTGG | -0.364
90 | GAGGTCAC | 0.25
91 | CGACCCCC | -0.369
92 | AATCGTCG | 0.24
93 | CCCCGAAA | -0.0454
94 | ACCTTAAG | -0.0181
95 | ATGAACCG | -0.0583
96 | ACGAAAGC | 0.356
97 | TAATCACA | 0.0137
98 | GCCGATGA | -0.0318
99 | GGCTTCAC | -0.0488
100 | AGTCTGAT | -0.0793

Row | Sequence | PBM E-score
101 | CGAGGACA | -0.0166
102 | GAGACACC | -0.178
103 | ATGCCCAA | -0.0366
104 | ACGCGATC | 0.144
105 | CATATAGA | -0.0343
106 | ATCTGGTG | 0.0381
107 | CTTCTCGA | 0.0296
108 | CTAAACGA | 0.158
109 | AACGCCGG | -0.164
110 | GACCTAAC | 0.22
111 | GGAAAGGA | -0.276
112 | AAGTGTGT | 0.154
113 | GCGTAGAA | 0.0196
114 | CACGACCC | 0.0117
115 | CGTCTATA | 0.159
116 | ACAGTAGT | -0.078
117 | ATTTTTAC | 0.114
118 | AACCTAGT | -0.015
119 | ACTGTGTG | -0.00379
120 | ATGTTGTA | 0.098
121 | AGCTGCTG | -0.0862
122 | ACACAAAA | 0.00785
123 | CTTTCCCC | -0.148
124 | ACTGAAAC | 0.00209
125 | CCGCCGGC | -0.123

Row | Sequence | PBM E-score
126 | CCGTCAGA | 0.132
127 | AGTTCCTA | 0.0999
128 | AGCACCCA | -0.276
129 | GAGGGGGA | -0.355
130 | ATACGAAC | 0.294
131 | GCCATGGC | -0.267
132 | ACAGAAGC | 0.00103
133 | CTCCCAGA | -0.159
134 | ACGGCAGA | 0.206
135 | CATCGAAC | 0.119
136 | AAACTACA | 0.0477
137 | GCCTGGGA | -0.0751
138 | ACTGATCG | 0.0647
139 | ATAATGCG | 0.0263
140 | GGCTCCCC | -0.241
141 | CGGGATAC | 0.0549
142 | ATCATGTG | 0.156
143 | AACTTAGT | 0.0102
144 | CCGACAAC | 0.0395
145 | AATGAGAA | 0.132
146 | CCTGTACC | -0.0879
147 | CCCGAGGG | -0.179
148 | GTGAAGTA | 0.142
149 | TATAACAA | 0.105
150 | ATTTCGTC | 0.229

Reformatted: results already given
AACCTAGT
  PBM E-score = -0.015
ACTGTGTG
  PBM E-score = -0.00379
ATGTTGTA
  PBM E-score = 0.098
AGCTGCTG
  PBM E-score = -0.0862

4 neighbouring records out of the list so far:
Row | Sequence | PBM E-score
67 | GCCTACAA | -0.14
68 | AACACTTG | -0.0627
69 | CGGAGTTA | 0.0161
70 | GTTCTAAA | 0.119

Following part

Row | Sequence | PBM E-score
151 | CCTGTCAC | 0.149
152 | ACCCACCT | -0.266
153 | AGTCGAAT | -0.178
154 | AACCGTTC | 0.204
155 | AGGTGGGC | -0.291
156 | GAGAAGTA | -0.0578
157 | ATTGCACA | 0.0349
158 | CGCACGAC | 0.242
159 | CGGGGAGC | -0.00752
160 | AGTGTGAT | 0.214
161 | ACGCACAC | 0.0964
162 | ATAAGCGA | 0.171
163 | CGTCACAG | 0.0767
164 | ACCGATTA | 0.107
165 | AATAGGTC | 0.0547
166 | AATACCTG | 0.0237
167 | ACTCGCTA | 0.105
168 | AATAGCGA | 0.234
169 | GCCCGGAC | -0.102
170 | AAACCACT | -0.142
171 | CTGATTGA | 0.0847
172 | GAACAGGC | -0.227

From the supplement of paper PMC3334620
